± gives the standard deviation of the averaged measurements. The list shows a part of the results.
Compound: Nc1nc2c(ncn2[C@@H]2O[C@H](COP(=O)(O)OP(=O)(O)OP(=O)(O)O)[C@@H](O)[C@H]2O)c(=O)[nH]1 [guanosine triphosphate]
Experiment: NP40-soluble protein abundance relative to vehicle (solubility fold change) (ratio); higher = more soluble protein in presence of GTP
In short: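 Data come from three independent experiments in which Dounce-homogenised Jurkat crude lysate was treated at eight concentrations from 0.1 to 10 mM. Treatment ran 10 min at room temperature and then 3 min at 37 °C, after which 0.8% NP40 and benzonase were added for 60 min at 4 °C before ultracentrifugation. The supernatant underwent TMT labelling and LC-MS/MS, and vsn-normalised intensities were expressed as fold change against the detergent-processed vehicle in each replicate.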

Sequences of proteins named here, by UniProt entry; tags and fusion partners are left off. A change or cut given only in a name is not applied to a line headed by its entry.
UniProt Q8IY95: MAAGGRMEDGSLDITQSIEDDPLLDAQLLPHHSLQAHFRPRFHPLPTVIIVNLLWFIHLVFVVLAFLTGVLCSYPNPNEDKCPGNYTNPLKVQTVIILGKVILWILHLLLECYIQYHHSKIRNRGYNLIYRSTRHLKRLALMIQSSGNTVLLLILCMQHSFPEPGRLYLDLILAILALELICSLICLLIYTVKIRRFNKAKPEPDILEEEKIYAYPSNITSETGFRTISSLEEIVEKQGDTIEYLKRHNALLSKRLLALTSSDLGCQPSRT
UniProt Q8NFY9: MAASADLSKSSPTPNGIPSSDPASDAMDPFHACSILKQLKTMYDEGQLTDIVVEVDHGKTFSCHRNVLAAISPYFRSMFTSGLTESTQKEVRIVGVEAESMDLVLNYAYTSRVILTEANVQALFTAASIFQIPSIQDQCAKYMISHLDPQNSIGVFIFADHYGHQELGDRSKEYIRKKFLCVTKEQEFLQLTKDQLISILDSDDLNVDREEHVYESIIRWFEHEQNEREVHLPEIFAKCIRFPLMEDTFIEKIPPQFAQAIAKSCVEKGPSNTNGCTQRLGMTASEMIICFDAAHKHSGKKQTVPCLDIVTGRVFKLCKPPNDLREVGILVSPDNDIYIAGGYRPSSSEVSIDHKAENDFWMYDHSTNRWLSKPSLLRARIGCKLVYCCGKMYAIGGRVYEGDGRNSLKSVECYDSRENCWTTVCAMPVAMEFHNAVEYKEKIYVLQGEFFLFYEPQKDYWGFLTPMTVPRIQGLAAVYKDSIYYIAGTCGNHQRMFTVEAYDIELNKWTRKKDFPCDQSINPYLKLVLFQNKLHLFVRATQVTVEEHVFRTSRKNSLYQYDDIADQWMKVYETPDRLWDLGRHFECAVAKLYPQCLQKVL
UniProt Q8N1G4: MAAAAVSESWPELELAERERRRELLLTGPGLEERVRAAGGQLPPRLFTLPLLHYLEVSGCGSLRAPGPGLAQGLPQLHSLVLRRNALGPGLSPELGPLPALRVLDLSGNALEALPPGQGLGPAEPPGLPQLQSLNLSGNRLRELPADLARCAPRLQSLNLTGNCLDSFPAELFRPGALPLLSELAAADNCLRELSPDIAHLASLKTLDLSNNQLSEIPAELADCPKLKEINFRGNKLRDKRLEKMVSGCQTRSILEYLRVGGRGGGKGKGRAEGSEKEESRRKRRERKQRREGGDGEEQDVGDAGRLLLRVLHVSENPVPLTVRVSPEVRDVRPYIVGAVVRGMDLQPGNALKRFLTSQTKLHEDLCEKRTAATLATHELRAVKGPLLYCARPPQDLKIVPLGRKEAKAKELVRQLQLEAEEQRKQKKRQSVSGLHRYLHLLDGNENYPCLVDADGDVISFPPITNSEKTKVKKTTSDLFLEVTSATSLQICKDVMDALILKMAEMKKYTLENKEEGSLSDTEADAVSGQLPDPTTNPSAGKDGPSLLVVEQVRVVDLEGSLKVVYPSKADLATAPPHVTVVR
UniProt Q8IU81: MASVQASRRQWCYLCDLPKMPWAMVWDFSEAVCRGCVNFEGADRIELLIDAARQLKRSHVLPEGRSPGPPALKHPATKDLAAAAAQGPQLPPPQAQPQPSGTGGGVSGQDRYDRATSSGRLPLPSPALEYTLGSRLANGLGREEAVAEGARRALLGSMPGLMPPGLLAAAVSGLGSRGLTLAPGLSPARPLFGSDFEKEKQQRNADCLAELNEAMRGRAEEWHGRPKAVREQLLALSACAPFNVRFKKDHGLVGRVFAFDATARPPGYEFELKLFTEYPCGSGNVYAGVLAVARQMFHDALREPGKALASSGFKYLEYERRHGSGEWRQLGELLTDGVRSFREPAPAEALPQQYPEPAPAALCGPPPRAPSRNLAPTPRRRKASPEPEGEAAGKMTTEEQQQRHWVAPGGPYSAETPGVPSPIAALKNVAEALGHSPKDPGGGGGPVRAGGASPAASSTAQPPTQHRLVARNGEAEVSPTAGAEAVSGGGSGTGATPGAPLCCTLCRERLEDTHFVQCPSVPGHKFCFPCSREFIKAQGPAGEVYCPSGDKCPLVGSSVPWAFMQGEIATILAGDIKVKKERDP
UniProt Q8TAF3: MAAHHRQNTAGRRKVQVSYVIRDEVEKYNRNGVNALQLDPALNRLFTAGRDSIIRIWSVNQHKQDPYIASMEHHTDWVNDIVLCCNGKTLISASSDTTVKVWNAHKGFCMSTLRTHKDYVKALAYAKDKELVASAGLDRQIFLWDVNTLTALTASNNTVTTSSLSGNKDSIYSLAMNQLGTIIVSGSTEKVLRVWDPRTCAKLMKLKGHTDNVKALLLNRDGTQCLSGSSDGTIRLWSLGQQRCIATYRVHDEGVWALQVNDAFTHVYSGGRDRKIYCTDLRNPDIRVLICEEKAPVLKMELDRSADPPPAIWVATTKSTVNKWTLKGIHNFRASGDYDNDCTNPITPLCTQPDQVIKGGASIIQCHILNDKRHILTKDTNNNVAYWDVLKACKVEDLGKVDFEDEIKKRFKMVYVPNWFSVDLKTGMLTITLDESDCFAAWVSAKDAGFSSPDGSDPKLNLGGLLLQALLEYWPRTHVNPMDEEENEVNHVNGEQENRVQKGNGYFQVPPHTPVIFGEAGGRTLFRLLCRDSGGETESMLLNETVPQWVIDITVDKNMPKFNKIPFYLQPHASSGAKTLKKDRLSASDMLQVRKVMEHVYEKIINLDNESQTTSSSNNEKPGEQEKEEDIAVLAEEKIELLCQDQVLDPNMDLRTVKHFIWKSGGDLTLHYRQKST
UniProt Q8N567: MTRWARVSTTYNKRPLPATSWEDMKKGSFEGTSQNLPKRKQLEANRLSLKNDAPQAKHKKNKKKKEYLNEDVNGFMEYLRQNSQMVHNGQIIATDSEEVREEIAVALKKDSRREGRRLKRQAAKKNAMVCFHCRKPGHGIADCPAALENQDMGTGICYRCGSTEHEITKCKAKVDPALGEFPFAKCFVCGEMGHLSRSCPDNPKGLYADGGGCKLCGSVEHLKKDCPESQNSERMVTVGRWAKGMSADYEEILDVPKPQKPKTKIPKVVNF
UniProt Q8NDX6: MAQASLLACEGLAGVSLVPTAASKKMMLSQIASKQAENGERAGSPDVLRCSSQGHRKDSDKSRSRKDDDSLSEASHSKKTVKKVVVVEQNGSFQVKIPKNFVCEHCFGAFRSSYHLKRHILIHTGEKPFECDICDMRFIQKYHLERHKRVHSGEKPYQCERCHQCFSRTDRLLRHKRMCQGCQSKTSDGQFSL
UniProt Q8N201, whole entry: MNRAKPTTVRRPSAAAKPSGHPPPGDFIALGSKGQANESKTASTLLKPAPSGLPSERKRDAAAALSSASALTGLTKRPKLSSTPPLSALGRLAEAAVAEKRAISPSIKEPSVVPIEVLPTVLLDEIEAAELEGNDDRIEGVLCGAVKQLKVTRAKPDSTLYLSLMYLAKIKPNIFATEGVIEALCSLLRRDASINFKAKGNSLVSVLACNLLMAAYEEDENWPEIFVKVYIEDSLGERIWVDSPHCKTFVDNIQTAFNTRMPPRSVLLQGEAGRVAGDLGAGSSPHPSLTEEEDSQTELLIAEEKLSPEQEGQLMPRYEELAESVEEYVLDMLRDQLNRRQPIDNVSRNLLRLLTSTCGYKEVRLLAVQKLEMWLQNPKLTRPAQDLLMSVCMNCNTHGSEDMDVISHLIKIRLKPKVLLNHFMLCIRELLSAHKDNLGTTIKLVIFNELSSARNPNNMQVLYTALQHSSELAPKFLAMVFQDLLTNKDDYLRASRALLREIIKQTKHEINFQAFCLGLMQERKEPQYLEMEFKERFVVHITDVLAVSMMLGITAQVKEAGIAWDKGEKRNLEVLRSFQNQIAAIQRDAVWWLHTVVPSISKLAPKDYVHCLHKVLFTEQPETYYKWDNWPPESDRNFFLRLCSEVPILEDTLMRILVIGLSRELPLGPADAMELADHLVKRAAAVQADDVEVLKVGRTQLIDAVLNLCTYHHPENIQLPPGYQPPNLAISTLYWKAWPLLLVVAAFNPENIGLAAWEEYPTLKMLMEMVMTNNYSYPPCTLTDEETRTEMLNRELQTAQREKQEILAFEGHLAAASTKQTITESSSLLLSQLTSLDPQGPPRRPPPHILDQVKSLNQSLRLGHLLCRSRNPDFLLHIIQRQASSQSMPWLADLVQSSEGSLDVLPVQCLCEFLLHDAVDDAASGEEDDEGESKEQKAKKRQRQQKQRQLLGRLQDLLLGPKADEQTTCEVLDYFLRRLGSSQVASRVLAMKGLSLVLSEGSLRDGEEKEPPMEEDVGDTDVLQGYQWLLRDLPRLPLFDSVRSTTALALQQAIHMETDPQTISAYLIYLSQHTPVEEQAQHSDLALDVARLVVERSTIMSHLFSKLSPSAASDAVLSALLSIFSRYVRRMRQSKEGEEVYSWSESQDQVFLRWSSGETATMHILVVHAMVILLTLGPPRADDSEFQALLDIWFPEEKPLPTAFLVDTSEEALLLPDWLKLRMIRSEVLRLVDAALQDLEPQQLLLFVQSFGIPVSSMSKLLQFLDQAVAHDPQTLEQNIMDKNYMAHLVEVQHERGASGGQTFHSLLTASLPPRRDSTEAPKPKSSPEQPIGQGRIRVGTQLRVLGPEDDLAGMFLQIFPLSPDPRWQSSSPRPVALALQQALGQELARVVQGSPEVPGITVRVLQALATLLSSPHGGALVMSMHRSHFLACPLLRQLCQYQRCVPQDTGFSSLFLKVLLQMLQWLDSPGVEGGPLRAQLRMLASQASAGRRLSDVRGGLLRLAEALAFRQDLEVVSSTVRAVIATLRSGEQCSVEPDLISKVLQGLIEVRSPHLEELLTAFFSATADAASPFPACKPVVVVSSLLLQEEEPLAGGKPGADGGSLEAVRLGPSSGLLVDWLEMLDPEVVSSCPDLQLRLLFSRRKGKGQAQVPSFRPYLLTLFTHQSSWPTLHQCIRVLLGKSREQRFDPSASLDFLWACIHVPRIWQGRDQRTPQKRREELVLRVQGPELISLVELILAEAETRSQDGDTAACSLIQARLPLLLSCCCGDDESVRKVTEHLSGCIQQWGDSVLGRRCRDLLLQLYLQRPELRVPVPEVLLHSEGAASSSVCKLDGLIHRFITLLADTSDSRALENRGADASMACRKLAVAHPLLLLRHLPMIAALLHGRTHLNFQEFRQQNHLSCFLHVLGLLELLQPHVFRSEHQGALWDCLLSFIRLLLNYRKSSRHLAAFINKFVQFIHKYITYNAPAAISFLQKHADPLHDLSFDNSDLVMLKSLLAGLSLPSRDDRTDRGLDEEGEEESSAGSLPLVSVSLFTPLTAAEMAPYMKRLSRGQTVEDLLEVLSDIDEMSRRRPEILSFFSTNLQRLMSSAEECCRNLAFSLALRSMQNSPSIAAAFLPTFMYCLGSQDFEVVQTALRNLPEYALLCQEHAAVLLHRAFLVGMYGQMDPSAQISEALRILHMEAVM
UniProt Q8TBM8: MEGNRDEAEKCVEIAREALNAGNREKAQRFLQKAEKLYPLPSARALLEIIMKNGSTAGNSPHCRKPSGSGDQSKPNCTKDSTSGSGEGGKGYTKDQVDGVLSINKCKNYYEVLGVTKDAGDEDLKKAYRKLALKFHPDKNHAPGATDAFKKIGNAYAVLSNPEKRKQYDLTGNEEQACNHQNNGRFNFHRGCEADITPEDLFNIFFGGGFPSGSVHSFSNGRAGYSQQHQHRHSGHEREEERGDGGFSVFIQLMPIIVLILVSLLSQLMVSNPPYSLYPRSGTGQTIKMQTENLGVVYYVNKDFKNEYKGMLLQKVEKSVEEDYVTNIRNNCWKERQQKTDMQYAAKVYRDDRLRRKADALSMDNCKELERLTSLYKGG
UniProt Q8TAT6: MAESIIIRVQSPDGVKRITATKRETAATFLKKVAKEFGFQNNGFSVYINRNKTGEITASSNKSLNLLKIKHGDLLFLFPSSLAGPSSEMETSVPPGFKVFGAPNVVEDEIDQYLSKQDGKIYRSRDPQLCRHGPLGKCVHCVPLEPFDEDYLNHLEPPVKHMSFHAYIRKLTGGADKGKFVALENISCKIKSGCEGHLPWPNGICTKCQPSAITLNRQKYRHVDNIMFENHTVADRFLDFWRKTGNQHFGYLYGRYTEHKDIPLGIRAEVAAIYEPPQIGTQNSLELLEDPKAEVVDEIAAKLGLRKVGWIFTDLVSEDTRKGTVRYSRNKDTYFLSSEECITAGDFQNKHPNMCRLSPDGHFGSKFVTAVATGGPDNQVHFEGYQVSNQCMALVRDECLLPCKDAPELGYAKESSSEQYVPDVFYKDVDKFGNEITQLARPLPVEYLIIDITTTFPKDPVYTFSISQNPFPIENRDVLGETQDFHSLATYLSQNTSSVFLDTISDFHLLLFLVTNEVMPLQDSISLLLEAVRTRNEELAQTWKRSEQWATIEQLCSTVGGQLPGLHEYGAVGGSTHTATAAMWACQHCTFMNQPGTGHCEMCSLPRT

Target	NP40-soluble protein abundance (concentration: 0.1mM)	NP40-soluble protein abundance (concentration: 0.5mM)	NP40-soluble protein abundance (concentration: 1mM)	NP40-soluble protein abundance (concentration: 2mM)	NP40-soluble protein abundance (concentration: 4mM)	NP40-soluble protein abundance (concentration: 6mM)	NP40-soluble protein abundance (concentration: 8mM)	NP40-soluble protein abundance (concentration: 10mM)
UniProt Q8IY95 and related entries	0.943 ± 0.042	0.994 ± 0.022	0.974 ± 0.056	0.955 ± 0.083	0.916 ± 0.063	0.931 ± 0.061	0.894 ± 0.066	0.902 ± 0.058
KBTBD8 (UniProt Q8NFY9)	1.09 ± 0.11	1.15 ± 0.061	1.04 ± 0.076	0.984 ± 0.089	1.01 ± 0.059	1.01 ± 0.097	1.01 ± 0.13	1.03 ± 0.13
LRRC47 (UniProt Q8N1G4)	0.981 ± 0.028	0.962 ± 0.046	0.976 ± 0.036	0.962 ± 0.051	0.98 ± 0.034	0.985 ± 0.045	1.01 ± 0.04	0.996 ± 0.069
IRF2BP1 (UniProt Q8IU81)	0.989 ± 0.05	0.969 ± 0.042	0.976 ± 0.061	0.956 ± 0.069	0.95 ± 0.071	0.946 ± 0.055	0.964 ± 0.047	0.982 ± 0.069
UniProt Q8TDJ6 and related entries	1.04 ± 0.039	1.17 ± 0.13	1.09 ± 0.11	1.19 ± 0.14	1.19 ± 0.12	1.13 ± 0.19	1.23 ± 0.19	1.18 ± 0.17
UniProt Q8TAF3 and related entries	1.03 ± 0.068	1.05 ± 0.06	0.949 ± 0.055	1.01 ± 0.064	0.997 ± 0.078	1 ± 0.019	0.948 ± 0.037	0.948 ± 0.076
UniProt Q8IXJ6 and related entries	0.995 ± 0.044	0.978 ± 0.047	0.909 ± 0.068	0.92 ± 0.057	0.93 ± 0.053	0.916 ± 0.071	0.916 ± 0.05	0.955 ± 0.071
ZCCHC9 (UniProt Q8N567)	1.03 ± 0.035	1.04 ± 0.054	1.11 ± 0.04	1.16 ± 0.072	1.18 ± 0.083	1.2 ± 0.12	1.19 ± 0.12	1.27 ± 0.033
ZNF740 (UniProt Q8NDX6)	1.01 ± 0.092	1.07 ± 0.12	1.06 ± 0.12	1.15 ± 0.16	1.1 ± 0.17	1.16 ± 0.12	1.09 ± 0.16	1.16 ± 0.12
INTS1 (UniProt Q8N201)	1.16 ± 0.11	1.22 ± 0.14	1.18 ± 0.24	1.34 ± 0.25	1.36 ± 0.27	1.34 ± 0.3	1.32 ± 0.26	1.3 ± 0.25
DNAJB14 (UniProt Q8TBM8)	0.99 ± 0.037	0.925 ± 0.04	1 ± 0.052	0.988 ± 0.058	1.03 ± 0.063	0.972 ± 0.063	1.046 ± 0.0057	1.03 ± 0.041
UniProt Q8TAT6 and related entries	1.01 ± 0.04	1 ± 0.05	0.926 ± 0.014	0.93 ± 0.054	0.919 ± 0.036	0.921 ± 0.037	0.893 ± 0.02	0.852 ± 0.042
RPUSD2 (UniProt Q8IZ73)	1 ± 0.095	1.03 ± 0.088	0.946 ± 0.06	0.965 ± 0.066	0.957 ± 0.036	0.932 ± 0.058	0.905 ± 0.054	0.94 ± 0.027

Taken from above:
ZCCHC9 (UniProt Q8N567) | NP40-soluble protein abundance (concentration: 8mM): 1.19 ± 0.12
UniProt Q8TAT6 and related entries | NP40-soluble protein abundance (concentration: 8mM): 0.893 ± 0.02

Source: the supplement of paper PMC6411743
